Source: publication PMC10163288
This is one part of the list.

B1: il2ra_site1_2b5i_normal_mot_HHH_b2_04910_000000118_0001_1_19_H_._HHH_b2_05414_0001_0000100006_0000001_0_af2pred_0001_af2pred_1 (protein)
chain: SSSSSDEELRRLLEEADEAAKNGNPEEAEKILEEAEKLAEEANDRSLRRAIEAILKMIKGSSSSS
B2: il2ra_site1_3nfp_normal_mot_HHH_b1_08149_af2_000000062_0001_43_57_H_._dd443d7604b6d6bd5a4a0e45f49110ec_0001_1_af2_0001_0000600033_0000001_0_af2pred_0001_af2pred … (protein)
chain: DELVEKLEEAIKRGDPRLVSELLRELAERIREGDPEARELREEAERLLEESGNPLAVLLLRRLES
B3: il2ra_site1_3nfp_sap_23_mot_HHH_b1_02174_af2_000000014_0001_1_18_H_._HHH_b1_01029_af2_0001_0000100006_0000001_0_0001_af2pred_0001_af2pred_swapped (protein)
chain: SSSSSEETKEAEELLKEILKLLREGNPEEAQRLIEELERLAKEANSRALKWLVEVLQKELNSSSS
B4: il2ra_site2_2erj_sap_28_mot_ca9fcc9ace360711d783d1260e4fbff1_0001_1_af2_000000007_0001_15_32_H_._HHH_b2_02269_0001_0000300005_0000001_1_0001_af2pred_0001_af2pre … (protein)
chain: SFIEIEIEDELAAKAVSRFAKWAGVEVEENGKSVTVEVPDPELAKFVEEAARQIEPEVQVRTSGS
B5: il2ra_site2_3nfp_sap_18_mot_HHH_b2_06150_000000217_0001_39_53_H_._HHH_b1_05319_af2_0001_0000300014_0000001_0_0001 (protein)
chain: SSSSDEEERVRELLKEAQEALEKGNPEEARRILQEAAQLAFELNDSELFYLIAELLLKVVKSSSS
B6: il2ra_site2_2erj_normal_mot_HHH_b1_08231_000000052_0001_20_37_H_._HHH_b1_04928_0001_0000400007_0000001_0 (protein)
chain: SSSDLEERVEELLERAEELLKEGNPEEALELLSEAYAIVYELGDDELVAEVLELAAEIVRAISSS
B7: il2ra_site1_1z92_normal_mot_7891c0d1f2c7eedbb314a075540956e2_0001_1_af2_000000230_0001_54_65_H_._HHH_b1_04373_af2_0001_0000400030_0000001_1 (protein)
chain: SSSSSSSEVEEIVKEIVEKFGLNERQKEKLEKLAEEFLERGADPEAIRYALEVAAKFLRSSSSSS
B8: il2ra_site1_2b5i_normal_mot_HHH_b2_04910_000000118_0001_1_19_H_._HHH_b1_02607_0001_0000400026_0000001_1_af2pred_0001_af2pred_1 (protein)
chain: SSSSDQEELEELLREANELFKNGDPEEARRVLEEAIELAREAGDRALLRFLEVALKIIEASSSSS
B9: il2ra_site2_3nfp_normal_mot_HHH_b1_08081_af2_000000020_0001_38_50_H_._HHH_b2_06530_0001_0000300035_0000001_0 (protein)
chain: SSSDEAREYLKAVIELARLLLERGDPEFAKRIVKMAVQLARDRGDEELLKEAEELEEEIEKSSSS
B10: il2ra_site1_3nfp_sap_16_mot_HHH_b2_02463_000000293_0001_1_19_H_._HHH_b2_04275_0001_0000500033_0000001_0_0001 (protein)
chain: SSSSTEELEELLRLVEEAYRAAQEGDEELVEELLEEAEELARKLGDKIAQRLLKDIKENTSSSSS
B11: il2ra_site1_1z92_sap_7_mot_35b94aac26684153dbcc4bf06a514b74_0001_1_000000013_0001_17_31_H_._2c46b57de5df830a699d451437f22a7b_0001_0001_0000200026_0000001_0_0001 … (protein)
chain: SLEEELRELLKELGIPPEEIEAILRDLERAERFAGDPKRALKMLLRALESLGDPAAEAVRELLER
B12: il2ra_site1_2b5i_normal_mot_22370d59370c406a0c205a431f537cfa_0001_af2_000000027_0001_1_31_H_._HHH_b2_03163_af2_0001_0000200016_0000001_0 (protein)
chain: SSSSNELARFATEVVWRLIYRLGLSREQAQRLNRIASELVWRGFSEEEIEEILQEEAEELKSSSS
B13: il2ra_site1_3nfp_normal_mot_HHH_b1_05070_af2_000000282_0001_43_57_H_._f36904accf409f30af2549b3cc9a15d7_0001_1_0001_0000100005_0000001_0 (protein)
chain: SLEEELEELLREYLPPKEIKVVVYFARMAAKALNDPKEALERLLKAAERLNNPDLERVLRELLEK
B14: il2ra_site1_2b5i_normal_mot_HHH_b2_08262_af2_000000095_0001_1_15_H_._HHH_b1_05819_af2_0001_0000200018_0000001_1_af2pred_0001_af2pred_1 (protein)
chain: SSSSSSDQEATELYLEASRLFLNGNPEEAKEILEEALEEAEKAGDEVAQRDIRKFLELLKSSSSS
B15: il2ra_site2_2erj_sap_19_mot_HHH_b1_00071_af2_000000225_0001_40_56_H_._HHH_b2_05943_af2_0001_0000400009_0000001_0_0001 (protein)
chain: SSSSDEEVRELIREAEELLERGNPEEALEVVREAATIAFQEGDFELFSILAELTEEIARTSSSSS
B16: il2ra_site2_2erj_sap_19_mot_HHH_b2_07898_000000271_0001_1_14_H_._HHH_b1_07400_0001_0000200010_0000001_0_0001 (protein)
chain: SSSSSDEELRELYELAVELLRLLAEGDEEKVKELLERLEELAERLGSDNAKELVEIARKRISSSS
B17: il2ra_site2_2erj_sap_27_mot_HHH_b1_02968_000000142_0001_22_39_H_._HHH_b1_05540_0001_0000200016_0000001_0_0001 (protein)
chain: SSSSDEWLRELYELANRVTHLLAKGNPEEAREVAEEALELAEENDSRNAHEILRFLLEQLSSSSS
B18: il2ra_site1_2b5i_sap_10_mot_2cbe48e66a1f39b3fed734b245ab0a04_0001_000000015_0001_17_31_H_._HHH_b1_04625_0001_0000100002_0000001_0_0001_af2pred_dldesign_0_af2pre … (protein)
chain: SSSSDELYEEIERLYKEALELYKAGKREEAKEVLEKALELAEKAKDEKIIAELKRLLELLSSSSS
B19: il2ra_site1_3nfp_sap_7_mot_HHH_b2_00594_af2_000000186_0001_1_15_H_._HHH_b1_02490_0001_0001200022_0000001_0_0001_af2pred_0001_af2pred (protein)
chain: SSSSNRVELLHEAAERLFELLEEGDEEEAERLLEEVARELRELGSEKAARSLERAFEIFLKSSSS
B20: il2ra_site2_3nfp_normal_mot_HHH_b2_04451_000000238_0001_21_37_H_._HHH_b1_07886_af2_0001_0001100043_0000001_0 (protein)
chain: SSSSSSEEVEELLQEARELLEEGDPYEALEVLLKASKIAAELGDEELARKVLKLFELIQRSSSSS
B21: il2ra_site2_2erj_normal_mot_HHH_b1_02968_000000142_0001_22_39_H_._HHH_b1_07717_0001_0000300013_0000001_0 (protein)
chain: SSSSSDEEEYRERVEELLEEAKHIEDLREAYKLAARALRLASEADDPELQRLVQKVVEELSSSSS
B22: il2ra_site2_2erj_sap_22_mot_HHH_b2_00138_000000178_0001_20_37_H_._HHH_b2_06234_af2_0001_0000100003_0000001_0_0001_af2pred_0001_1_af2pred_swapped (protein)
chain: SSSSSESEERARELAEEVNKLLANGDPEEAEEVLKELEELAEELNDNTARILLELLRRWLSSSSS
B23: il2ra_site1_1z92_normal_mot_HHH_b2_07758_000000290_0001_1_17_H_._HHH_b1_04987_af2_0001_0000200015_0000001_0_af2pred_0001_af2pred (protein)
chain: SSSSSSNKLLKVAIEIAIKQAGLSEEDKEKLEELLEELEERGIDLLEISRELDKLALELSSSSSS
B24: il2ra_site1_1z92_sap_13_mot_HHH_b1_03619_000000222_0001_22_39_H_._HHH_b1_03386_0001_0000500018_0000001_0_0001_af2pred_0001_af2pred (protein)
chain: SSSSDERLELQAENIVRLVVRTAGLSEEDREELEEIAEELLKEGVDYREVAQIIEELALRLSSSS

The binders below were run against il2ra, P01589 (assay: yeast display titration).

Apparent Kd, inactive:
B1 no binding seen, B2 no binding seen, B3 no binding seen, B4 no binding seen, B5 no binding seen, B6 no binding seen, B7 no binding seen, B8 no binding seen, B9 no binding seen, B10 no binding seen, B11 no binding seen, B12 no binding seen, B13 no binding seen, B14 no binding seen, B15 no binding seen, B16 no binding seen, B17 no binding seen, B18 no binding seen, B19 no binding seen, B20 no binding seen, B21 no binding seen, B22 no binding seen, B23 no binding seen, B24 no binding seen
